{"sequences": {"note": "Chains of the proteins cited; added tags and fusions are not shown.", "UniProt Q84ZL0": "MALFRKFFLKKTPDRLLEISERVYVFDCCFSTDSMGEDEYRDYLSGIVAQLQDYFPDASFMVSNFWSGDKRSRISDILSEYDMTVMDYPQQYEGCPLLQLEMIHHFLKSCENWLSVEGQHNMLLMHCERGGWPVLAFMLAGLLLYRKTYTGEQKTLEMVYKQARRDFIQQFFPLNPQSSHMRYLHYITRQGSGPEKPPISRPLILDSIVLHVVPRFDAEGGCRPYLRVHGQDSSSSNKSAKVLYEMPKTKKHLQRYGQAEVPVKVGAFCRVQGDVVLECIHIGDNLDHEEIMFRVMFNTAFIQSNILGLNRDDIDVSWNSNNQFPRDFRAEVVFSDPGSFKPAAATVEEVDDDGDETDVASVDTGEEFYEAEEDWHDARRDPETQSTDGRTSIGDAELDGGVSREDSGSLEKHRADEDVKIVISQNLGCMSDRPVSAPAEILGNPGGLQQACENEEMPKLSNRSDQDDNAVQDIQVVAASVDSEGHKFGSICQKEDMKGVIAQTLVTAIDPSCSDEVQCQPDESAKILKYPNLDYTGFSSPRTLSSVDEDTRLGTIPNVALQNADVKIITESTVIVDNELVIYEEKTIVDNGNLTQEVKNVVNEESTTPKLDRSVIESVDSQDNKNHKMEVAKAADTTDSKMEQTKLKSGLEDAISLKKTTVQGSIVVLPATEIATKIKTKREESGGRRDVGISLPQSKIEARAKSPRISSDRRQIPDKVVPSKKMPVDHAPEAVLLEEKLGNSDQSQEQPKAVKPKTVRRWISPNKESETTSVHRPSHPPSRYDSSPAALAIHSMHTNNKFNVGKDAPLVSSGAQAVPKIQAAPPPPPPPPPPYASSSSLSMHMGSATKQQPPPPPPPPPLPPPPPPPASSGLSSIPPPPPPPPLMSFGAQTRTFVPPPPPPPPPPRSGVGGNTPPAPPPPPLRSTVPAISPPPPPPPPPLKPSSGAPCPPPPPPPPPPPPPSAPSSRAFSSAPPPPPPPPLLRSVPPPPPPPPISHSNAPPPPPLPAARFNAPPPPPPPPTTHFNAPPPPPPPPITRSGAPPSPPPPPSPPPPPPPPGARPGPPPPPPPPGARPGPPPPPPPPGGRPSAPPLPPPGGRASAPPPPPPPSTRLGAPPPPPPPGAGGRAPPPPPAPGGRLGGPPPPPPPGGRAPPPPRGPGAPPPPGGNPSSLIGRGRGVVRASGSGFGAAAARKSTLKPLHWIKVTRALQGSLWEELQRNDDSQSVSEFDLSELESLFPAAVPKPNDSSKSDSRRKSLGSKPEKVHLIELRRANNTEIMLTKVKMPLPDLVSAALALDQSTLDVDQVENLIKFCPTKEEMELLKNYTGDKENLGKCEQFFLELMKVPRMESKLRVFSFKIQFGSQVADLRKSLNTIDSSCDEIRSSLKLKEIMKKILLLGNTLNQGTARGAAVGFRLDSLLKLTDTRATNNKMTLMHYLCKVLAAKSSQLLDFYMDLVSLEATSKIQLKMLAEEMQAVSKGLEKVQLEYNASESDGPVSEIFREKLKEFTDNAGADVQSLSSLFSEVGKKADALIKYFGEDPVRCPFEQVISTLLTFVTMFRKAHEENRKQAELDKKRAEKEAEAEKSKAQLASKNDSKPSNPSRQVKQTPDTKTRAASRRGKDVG"}, "source": "paper PMC8786996", "binders": {"B1": {"name": "full-length RIP5 fused to a half of YFP, in tobacco leaves (protein, UniProt Q10L91 1-301)", "chain": "MASVTYIDDSGSEVIDPPKTEVLDVTELAGDPVPHSPKPNVVVSSSVRELLECPVCLSAMYPPIHQCSNGHTLCSGCKPRVHNRCPTCRHELGNIRCLALEKVAASLELPCKYQNFGCVGIYPYYCKLKHESQCQYRPYSCPYAGSECTVAGDIPYLVNHLKDDHKVDMHNGCTFNHRYVKSNPHEVENATWMLTVFSCFGQYFCLHFEAFQLGMAPVYIAFLRFMGDDLEAKNYSYSLEVGGTGRKMIWQGVPRSIRDSHRKVRDSYDGLIIQRNMALFFSGGERKELKLRVTGRIWKEQ"}}, "key": {"[1]": {"biological_target": "full-length RMD fused to cYFP (RMD-cYFP), in tobacco leaves (rice) (UniProt Q84ZL0)", "assay": "split reporter; BiFC with nYFP and cYFP fusions co-transformed into Nicotiana benthamiana leaves by Agrobacterium; confocal microscopy after 24-36 h in the dark"}, "[2]": {"biological_target": "full-length RIP5 fused to a half of YFP, in tobacco leaves (rice) (UniProt Q10L91)", "assay": "split reporter; BiFC with nYFP and cYFP fusions co-transformed into Nicotiana benthamiana leaves by Agrobacterium; confocal microscopy after 24-36 h in the dark"}}, "note": "Results are given in words; binding and its absence hold for the method and conditions named. In cells and extracts the contact can be indirect. Some entries that bind do so weakly or less than the wild type. Tags and fused reporters may be left off the sequences shown.", "data": [{"binder": "B1", "values": [{"measurement": "binding", "setting": "[1]", "result": "binds"}, {"measurement": "binding", "setting": "[2]", "result": "binds"}]}]}
